From US20080039419A1
These are yes or no findings as the source states them, for the method shown. Some entries that bind do so weakly or less than the wild type.

The chains behind the UniProt entries cited, without tags or fusion partners.
UniProt Q9QXN1: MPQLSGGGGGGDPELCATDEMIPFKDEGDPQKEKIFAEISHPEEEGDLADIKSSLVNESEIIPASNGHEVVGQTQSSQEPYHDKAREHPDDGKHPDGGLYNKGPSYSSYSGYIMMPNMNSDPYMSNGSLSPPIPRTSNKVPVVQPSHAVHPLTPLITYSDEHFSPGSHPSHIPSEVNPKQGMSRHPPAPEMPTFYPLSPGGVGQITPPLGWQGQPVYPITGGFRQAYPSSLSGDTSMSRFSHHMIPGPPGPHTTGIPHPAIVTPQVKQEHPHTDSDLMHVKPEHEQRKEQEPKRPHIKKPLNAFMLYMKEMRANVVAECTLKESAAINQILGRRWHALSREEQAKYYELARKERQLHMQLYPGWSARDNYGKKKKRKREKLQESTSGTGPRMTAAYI

Columns and labels:
β-catenin (rat) [1] = target: T1, β-catenin (rat) (UniProt Q9WU82); assay: complex formation in ILK-overexpressing IEC-18 cells
T1 sequence (looked up): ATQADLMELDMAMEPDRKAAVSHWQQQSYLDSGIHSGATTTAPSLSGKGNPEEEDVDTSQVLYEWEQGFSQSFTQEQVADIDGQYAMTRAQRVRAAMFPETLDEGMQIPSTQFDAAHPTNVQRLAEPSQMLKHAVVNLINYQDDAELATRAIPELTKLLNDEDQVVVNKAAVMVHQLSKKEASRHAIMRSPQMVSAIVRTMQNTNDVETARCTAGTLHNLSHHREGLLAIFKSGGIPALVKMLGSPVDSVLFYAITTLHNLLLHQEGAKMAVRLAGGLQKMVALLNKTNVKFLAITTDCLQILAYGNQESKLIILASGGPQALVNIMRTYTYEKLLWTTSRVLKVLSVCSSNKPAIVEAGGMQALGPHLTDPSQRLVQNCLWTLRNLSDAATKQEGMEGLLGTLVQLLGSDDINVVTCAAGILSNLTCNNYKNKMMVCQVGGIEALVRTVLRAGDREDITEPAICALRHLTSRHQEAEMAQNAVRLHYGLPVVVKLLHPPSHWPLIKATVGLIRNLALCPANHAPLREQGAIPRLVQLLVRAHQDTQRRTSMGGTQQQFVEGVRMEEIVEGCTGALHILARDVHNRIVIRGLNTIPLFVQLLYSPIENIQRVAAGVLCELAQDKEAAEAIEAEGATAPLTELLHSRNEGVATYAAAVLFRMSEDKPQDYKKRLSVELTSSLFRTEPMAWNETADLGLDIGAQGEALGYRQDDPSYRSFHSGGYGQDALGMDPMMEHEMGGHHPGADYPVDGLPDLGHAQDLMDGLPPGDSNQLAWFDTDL

β-catenin (rat) [2] = target: T1, β-catenin (rat); assay: complex formation in ILK-overexpressing IEC-18 cells (immunoprecipitation and Western blot)

binding (β-catenin (rat) [1]): binds | binding (β-catenin (rat) [2]): binds
Substance: LEF-1 (HMG transcription factor) (from UniProt Q9QXN1 1-397)
